Laboratory results published in patent US20100120685A1.
These are yes or no findings as the source states them, for the method shown. Some binding calls cover weakened binding; strength is not graded here.

Protein sequences, listed by entry. Tags and fused reporters are not part of them. Residues count along the entry.
UniProt O75197, residues 32-1615: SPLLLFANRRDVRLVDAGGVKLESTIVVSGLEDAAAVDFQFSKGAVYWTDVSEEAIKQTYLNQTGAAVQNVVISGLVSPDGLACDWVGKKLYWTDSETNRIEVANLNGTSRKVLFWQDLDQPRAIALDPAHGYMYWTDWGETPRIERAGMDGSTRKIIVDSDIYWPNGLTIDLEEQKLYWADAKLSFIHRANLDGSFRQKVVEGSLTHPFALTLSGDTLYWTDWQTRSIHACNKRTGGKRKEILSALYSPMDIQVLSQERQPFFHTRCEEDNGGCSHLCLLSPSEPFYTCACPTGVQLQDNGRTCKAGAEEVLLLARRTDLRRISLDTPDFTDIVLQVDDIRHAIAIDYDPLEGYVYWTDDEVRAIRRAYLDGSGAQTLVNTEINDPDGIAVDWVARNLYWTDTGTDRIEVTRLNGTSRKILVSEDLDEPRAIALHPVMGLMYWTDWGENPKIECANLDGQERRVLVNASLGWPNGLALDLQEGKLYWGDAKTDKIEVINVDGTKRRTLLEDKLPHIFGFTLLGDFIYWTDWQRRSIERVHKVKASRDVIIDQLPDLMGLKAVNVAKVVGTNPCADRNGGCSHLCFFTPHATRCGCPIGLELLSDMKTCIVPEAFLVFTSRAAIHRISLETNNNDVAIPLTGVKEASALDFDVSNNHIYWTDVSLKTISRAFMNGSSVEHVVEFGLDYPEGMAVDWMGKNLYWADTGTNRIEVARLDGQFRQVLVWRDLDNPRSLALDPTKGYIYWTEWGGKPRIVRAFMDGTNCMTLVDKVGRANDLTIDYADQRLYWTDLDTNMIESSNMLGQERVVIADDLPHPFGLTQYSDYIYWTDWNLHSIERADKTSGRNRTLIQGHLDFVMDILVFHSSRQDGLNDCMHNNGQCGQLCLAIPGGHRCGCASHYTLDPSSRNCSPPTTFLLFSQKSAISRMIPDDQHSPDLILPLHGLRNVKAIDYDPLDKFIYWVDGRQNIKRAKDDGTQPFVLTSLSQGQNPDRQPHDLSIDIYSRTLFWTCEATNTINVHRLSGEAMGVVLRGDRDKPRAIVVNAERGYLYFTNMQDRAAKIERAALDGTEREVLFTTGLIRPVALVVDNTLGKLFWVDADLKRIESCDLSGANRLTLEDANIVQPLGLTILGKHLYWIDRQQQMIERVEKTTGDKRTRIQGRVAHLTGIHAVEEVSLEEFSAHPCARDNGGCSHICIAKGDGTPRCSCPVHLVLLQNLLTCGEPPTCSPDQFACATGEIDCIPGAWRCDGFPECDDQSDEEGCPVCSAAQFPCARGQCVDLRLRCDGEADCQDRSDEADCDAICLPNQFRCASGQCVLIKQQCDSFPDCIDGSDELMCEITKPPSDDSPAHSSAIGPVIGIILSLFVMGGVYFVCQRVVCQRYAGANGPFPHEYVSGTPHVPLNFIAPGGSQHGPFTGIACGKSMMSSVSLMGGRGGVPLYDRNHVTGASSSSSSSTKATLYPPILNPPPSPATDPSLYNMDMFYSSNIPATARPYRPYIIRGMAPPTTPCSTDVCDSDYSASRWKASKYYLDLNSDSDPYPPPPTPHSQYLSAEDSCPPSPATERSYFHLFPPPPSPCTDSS
UniProt O75581, residues 20-1613: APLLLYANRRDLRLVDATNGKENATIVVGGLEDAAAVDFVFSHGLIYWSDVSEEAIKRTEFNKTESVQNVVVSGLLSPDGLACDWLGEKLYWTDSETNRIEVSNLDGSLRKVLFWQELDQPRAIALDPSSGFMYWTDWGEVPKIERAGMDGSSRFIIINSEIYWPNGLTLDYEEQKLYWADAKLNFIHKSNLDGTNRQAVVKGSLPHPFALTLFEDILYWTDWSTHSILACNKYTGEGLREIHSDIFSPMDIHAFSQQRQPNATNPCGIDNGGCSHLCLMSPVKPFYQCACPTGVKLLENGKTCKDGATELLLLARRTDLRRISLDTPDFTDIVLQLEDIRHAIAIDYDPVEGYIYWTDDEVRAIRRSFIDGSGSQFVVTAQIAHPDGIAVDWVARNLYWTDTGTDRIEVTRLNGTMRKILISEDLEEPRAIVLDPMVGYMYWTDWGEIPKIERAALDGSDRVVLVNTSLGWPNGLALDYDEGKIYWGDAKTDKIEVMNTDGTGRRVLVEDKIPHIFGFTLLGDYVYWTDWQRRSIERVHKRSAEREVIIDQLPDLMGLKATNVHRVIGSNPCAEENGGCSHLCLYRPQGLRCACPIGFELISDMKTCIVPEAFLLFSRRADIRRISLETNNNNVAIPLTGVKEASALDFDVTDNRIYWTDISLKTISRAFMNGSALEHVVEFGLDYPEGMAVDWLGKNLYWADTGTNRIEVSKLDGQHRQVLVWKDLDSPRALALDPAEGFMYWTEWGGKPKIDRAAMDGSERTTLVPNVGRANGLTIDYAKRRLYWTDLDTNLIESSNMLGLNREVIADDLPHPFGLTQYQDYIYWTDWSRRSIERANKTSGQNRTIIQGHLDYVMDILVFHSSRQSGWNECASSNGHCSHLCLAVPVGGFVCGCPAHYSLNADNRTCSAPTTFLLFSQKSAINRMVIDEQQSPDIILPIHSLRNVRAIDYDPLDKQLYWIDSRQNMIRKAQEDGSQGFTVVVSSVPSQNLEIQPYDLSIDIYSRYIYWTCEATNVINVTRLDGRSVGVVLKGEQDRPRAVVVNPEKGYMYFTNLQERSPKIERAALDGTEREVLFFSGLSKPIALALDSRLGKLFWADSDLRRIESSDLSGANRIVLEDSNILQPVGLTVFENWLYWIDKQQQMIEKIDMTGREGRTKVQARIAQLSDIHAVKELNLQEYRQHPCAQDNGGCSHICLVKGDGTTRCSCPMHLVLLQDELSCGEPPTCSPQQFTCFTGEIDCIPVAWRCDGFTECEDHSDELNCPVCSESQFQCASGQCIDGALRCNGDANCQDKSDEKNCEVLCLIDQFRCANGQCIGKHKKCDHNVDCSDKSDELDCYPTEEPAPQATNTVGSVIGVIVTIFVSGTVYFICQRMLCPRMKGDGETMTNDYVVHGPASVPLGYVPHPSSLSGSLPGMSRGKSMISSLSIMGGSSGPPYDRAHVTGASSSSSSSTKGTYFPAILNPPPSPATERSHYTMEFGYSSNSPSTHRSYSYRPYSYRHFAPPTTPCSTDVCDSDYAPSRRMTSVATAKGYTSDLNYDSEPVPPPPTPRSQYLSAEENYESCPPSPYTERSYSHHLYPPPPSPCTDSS

Columns and labels:
[1] = biological target: LRP5 (as used in Example 11) (UniProt O75197); assay: legend of FIG. 10
[2] = biological target: LRP5 (as used in Example 11) (UniProt O75197); assay: summary of Example 11
[3] = biological target: LRP6 (as used in Example 11) (UniProt O75581); assay: competition with 125I-Mesd for LRP6

Measured: binding

B1: recombinant mouse Mesd protein (wild type) (protein, not shown: small tags and cut ends)
chain: ADTPGEATPPPRKKKDIRDYNDADMARLLEQWEKDDDIEEGDLPEHKRPSAPIDFSKLDPGKPESILKMTKKGKTLMMFVTVSGNPTEKETEEITSLWQGSLFNANYDVQRFIVGSDRAIFMLRDGSYAWEIKDFLVSQDRCAEVTLEGQMYPGKGGGSKEKNKTKPEKAKKKEGDRKPRASKEDNRAGSRREDL
modifications: 125I-labelled (IODO-GEN method) where used as tracer
binds: all assays above
